Measurements as given in the supplement of paper PMC10849652.
This is one part of the list.

The chains behind the UniProt entries cited, without tags or fusion partners. Where a name states a change or a piece, a line headed by the entry shows the natural chain unless it says otherwise.
UniProt Q9NWM0: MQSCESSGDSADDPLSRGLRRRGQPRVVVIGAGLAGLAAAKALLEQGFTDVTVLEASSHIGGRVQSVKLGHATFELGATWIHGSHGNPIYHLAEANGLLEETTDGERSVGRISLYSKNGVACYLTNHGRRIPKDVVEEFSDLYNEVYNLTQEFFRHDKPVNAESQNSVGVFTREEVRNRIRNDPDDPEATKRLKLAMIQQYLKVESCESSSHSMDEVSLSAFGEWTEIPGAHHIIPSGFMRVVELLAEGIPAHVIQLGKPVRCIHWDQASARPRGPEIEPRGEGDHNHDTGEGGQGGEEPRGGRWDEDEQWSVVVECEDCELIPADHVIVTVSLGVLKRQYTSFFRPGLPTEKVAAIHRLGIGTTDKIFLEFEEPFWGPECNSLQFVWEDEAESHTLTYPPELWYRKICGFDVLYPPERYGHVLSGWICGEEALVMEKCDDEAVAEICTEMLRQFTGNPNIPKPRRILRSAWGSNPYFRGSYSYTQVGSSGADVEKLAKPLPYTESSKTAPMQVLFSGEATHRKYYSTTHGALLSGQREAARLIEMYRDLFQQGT
UniProt Q8N5G0: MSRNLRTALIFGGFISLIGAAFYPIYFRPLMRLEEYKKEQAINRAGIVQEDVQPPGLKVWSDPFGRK
UniProt O60749: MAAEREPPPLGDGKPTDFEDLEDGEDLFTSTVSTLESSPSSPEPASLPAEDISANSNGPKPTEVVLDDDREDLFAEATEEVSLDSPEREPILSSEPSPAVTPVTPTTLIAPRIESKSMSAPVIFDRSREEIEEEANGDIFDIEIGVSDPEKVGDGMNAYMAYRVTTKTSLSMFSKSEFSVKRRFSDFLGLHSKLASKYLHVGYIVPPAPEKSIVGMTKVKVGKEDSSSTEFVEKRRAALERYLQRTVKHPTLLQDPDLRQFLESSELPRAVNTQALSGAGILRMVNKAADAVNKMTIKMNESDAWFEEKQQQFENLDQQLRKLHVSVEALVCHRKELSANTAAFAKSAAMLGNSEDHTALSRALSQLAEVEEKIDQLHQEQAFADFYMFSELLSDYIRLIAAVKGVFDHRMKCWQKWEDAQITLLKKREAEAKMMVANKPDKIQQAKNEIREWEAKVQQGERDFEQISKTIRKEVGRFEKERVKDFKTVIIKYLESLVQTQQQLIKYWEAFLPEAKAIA
UniProt P08294: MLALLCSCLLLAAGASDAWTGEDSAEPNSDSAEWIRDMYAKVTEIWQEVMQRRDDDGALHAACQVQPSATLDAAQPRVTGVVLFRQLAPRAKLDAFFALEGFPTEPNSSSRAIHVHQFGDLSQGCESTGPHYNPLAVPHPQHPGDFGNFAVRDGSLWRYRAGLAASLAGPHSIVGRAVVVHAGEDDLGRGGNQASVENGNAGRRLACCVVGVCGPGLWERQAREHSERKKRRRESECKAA
UniProt Q3SY56: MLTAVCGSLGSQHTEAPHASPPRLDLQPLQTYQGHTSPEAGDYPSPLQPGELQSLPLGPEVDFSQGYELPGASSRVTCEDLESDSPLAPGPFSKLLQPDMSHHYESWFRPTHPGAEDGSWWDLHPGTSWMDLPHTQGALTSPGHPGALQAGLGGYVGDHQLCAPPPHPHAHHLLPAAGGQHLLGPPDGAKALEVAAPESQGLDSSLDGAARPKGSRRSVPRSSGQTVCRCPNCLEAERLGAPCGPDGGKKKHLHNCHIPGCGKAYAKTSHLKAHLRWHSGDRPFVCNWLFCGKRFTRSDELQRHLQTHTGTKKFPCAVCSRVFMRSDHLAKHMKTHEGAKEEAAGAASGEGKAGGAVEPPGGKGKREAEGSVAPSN
UniProt Q86T20: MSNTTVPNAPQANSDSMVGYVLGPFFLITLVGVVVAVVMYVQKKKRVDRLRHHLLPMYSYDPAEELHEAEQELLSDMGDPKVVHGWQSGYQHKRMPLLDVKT
UniProt O95149, whole entry, looked up: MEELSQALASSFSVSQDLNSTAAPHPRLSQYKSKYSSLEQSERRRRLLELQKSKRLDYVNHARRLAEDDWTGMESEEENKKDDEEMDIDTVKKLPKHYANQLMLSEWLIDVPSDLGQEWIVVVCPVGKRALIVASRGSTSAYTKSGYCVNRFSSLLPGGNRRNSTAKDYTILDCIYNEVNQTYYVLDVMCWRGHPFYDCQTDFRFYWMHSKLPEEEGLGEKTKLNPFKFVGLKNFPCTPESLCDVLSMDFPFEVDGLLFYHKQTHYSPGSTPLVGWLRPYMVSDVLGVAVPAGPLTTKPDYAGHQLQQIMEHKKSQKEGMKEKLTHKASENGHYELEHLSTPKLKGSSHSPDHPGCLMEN
UniProt Q07617: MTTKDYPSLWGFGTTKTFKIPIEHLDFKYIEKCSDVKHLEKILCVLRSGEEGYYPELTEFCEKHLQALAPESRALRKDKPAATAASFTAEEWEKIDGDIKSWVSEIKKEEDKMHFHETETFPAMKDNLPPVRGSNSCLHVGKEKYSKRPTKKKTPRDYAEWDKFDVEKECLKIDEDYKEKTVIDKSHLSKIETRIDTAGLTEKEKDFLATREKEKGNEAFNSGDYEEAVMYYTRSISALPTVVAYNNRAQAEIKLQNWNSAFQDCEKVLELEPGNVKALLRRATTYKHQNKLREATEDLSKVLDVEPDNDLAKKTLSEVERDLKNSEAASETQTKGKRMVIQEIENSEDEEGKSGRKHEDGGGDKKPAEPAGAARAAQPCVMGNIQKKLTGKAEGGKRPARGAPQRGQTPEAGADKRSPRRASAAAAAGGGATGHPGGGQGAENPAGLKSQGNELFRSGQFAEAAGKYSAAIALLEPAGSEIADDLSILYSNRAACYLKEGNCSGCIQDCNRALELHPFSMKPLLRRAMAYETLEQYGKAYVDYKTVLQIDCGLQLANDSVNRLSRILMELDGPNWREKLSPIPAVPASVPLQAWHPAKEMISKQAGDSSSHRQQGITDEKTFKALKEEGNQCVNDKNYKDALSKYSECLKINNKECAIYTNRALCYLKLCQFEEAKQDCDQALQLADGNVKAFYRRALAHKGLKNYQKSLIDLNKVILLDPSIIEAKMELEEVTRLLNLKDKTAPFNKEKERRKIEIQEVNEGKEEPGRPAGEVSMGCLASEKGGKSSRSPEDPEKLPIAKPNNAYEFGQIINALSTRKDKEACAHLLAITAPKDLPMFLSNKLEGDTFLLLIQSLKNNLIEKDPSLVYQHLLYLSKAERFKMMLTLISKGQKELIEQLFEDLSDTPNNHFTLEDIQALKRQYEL
UniProt O00161: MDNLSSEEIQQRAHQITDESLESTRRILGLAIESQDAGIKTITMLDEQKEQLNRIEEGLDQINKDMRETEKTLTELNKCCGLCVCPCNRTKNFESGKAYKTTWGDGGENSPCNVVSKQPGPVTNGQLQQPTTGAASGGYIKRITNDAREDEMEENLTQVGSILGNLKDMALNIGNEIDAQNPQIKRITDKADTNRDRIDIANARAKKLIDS
UniProt P58511: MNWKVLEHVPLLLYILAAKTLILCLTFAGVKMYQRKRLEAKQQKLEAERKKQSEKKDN
UniProt Q8TAQ2, whole entry, looked up: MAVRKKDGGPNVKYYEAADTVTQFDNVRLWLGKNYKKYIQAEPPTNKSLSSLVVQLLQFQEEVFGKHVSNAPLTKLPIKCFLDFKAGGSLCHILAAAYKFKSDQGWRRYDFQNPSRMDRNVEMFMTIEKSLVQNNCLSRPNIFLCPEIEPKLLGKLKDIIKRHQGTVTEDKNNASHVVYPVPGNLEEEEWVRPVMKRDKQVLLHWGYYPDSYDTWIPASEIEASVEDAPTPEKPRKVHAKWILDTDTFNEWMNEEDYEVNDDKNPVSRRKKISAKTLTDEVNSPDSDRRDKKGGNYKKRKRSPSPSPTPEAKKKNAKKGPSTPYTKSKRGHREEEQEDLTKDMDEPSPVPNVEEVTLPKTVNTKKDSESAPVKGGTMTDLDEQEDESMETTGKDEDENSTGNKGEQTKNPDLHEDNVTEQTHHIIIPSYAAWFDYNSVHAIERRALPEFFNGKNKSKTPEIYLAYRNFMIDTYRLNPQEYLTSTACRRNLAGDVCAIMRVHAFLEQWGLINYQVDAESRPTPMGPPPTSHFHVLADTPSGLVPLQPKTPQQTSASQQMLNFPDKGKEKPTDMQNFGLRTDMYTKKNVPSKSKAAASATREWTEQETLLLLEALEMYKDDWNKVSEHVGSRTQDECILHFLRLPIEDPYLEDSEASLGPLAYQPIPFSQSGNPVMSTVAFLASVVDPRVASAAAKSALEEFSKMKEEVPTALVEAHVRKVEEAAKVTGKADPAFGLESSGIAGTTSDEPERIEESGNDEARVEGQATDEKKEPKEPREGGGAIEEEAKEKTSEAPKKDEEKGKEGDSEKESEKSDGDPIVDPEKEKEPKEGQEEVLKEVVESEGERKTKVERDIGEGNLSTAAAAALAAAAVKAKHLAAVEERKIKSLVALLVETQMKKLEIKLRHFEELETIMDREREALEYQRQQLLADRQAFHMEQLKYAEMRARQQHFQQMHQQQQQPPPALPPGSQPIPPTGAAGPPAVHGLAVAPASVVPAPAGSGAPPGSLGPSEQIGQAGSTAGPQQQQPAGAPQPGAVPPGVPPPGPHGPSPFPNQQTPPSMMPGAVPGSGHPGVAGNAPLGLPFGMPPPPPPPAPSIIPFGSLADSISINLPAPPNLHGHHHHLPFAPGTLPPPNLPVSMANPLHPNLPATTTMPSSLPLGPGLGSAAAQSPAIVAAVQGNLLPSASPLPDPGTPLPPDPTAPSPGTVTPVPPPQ
UniProt Q9H4I9: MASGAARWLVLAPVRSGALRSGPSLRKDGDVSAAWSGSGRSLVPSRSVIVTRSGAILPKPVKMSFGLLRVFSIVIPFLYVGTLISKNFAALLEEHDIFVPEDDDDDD
UniProt Q9Y5W7: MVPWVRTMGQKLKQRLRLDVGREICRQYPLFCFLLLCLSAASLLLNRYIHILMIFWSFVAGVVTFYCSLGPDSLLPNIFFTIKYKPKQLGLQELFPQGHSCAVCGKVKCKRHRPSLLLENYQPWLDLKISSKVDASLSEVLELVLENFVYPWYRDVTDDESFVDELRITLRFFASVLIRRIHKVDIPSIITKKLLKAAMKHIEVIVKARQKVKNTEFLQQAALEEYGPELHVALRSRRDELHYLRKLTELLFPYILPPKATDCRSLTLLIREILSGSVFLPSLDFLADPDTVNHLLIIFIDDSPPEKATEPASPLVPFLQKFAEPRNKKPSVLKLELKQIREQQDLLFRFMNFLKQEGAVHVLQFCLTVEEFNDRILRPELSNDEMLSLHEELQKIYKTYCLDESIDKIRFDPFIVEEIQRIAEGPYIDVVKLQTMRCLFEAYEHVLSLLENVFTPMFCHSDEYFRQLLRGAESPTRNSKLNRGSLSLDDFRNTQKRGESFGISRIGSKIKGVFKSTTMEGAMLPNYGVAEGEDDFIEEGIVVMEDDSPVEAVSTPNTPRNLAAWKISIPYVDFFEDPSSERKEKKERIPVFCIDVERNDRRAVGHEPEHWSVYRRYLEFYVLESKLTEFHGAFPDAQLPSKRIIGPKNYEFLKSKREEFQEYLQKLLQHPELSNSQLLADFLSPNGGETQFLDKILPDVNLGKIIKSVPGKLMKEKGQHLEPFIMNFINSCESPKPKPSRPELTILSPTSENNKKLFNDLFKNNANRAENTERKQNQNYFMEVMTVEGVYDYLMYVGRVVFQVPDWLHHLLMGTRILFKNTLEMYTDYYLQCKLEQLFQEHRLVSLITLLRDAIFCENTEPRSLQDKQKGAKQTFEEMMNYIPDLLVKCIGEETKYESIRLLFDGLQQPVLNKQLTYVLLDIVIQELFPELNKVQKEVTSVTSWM
UniProt Q96RF0: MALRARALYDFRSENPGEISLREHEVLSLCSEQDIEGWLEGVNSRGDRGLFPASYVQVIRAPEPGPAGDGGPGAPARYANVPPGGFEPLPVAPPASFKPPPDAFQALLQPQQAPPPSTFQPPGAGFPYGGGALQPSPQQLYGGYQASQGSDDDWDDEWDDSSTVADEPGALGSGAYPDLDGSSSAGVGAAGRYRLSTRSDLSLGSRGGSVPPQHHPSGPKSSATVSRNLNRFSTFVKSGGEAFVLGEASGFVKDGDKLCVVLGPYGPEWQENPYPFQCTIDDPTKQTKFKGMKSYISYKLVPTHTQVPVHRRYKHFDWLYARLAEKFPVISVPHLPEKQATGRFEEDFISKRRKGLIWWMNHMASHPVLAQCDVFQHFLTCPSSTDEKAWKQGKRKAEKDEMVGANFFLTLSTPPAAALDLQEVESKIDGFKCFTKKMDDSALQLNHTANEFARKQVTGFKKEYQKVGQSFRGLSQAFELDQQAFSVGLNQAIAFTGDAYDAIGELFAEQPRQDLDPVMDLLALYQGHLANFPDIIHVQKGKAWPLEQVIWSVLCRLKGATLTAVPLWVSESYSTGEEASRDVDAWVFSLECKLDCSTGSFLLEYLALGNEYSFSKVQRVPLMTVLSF

How the values were obtained:
Experiment in all cases: log2 fold change, soluble protein after heating vs DMSO (PISA); higher = thermal stabilisation; K562 lysate, 10 uM; active = over 0.2 and 3.5 SD of the protein, either way, in both replicates (recomputed)
lapatinib = compound: CS(=O)(=O)CCNCc1ccc(-c2ccc3ncnc(Nc4ccc(OCc5cccc(F)c5)c(Cl)c4)c3c2)o1 [lapatinib]
How it was run: (§1)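 Values give the log-two fold change in thermal stability against solvent controls, from duplicates. Crude K562 extract at 1 mg/mL protein, made by dounce homogenisation in PBS pH 7.4 with 1 mM MgCl2, was treated with 10 μM compound for 30 min. After 3 min heating across 48°C-58°C, aliquots were pooled, adjusted to 0.5% NP-40 at 4°C and centrifuged at 21,000xg for 90 min. The supernatant was measured by TMTpro 16plex LC-MS/MS with channel sums equalised.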

duvelisib = compound: C[C@H](Nc1ncnc2nc[nH]c12)c1cc2cccc(Cl)c2c(=O)n1-c1ccccc1 [duvelisib]
How it was run: as §1

dasatinib = compound: Cc1nc(Nc2ncc(C(=O)Nc3c(C)cccc3Cl)s2)cc(N2CCN(CCO)CC2)n1 [dasatinib]
How it was run: as §1

[1] = compound: Cn1cc(-c2ccc3c(c2)CCN3C(=O)Cc2cccc(C(F)(F)F)c2)c2c(N)ncnc21
How it was run: as §1

[2] = compound: NC(=O)c1cnc(N[C@@H]2CCCC[C@@H]2N)nc1Nc1cccc(-n2nccn2)c1
How it was run: as §1

[3] = compound: NC1(c2ccc(-c3nc4ccn5c(=O)[nH]nc5c4cc3-c3ccccc3)cc2)CCC1
How it was run: as §1

pictilisib = compound: CS(=O)(=O)N1CCN(Cc2cc3nc(-c4cccc5[nH]ncc45)nc(N4CCOCC4)c3s2)CC1 [pictilisib]
How it was run: as §1

crizotinib = compound: C[C@@H](Oc1cc(-c2cnn(C3CCNCC3)c2)cnc1N)c1c(Cl)ccc(F)c1Cl [crizotinib]
How it was run: as §1

tozasertib = compound: Cc1cc(Nc2cc(N3CCN(C)CC3)nc(Sc3ccc(NC(=O)C4CC4)cc3)n2)n[nH]1 [tozasertib]
How it was run: as §1

doramapimod = compound: Cc1ccc(-n2nc(C(C)(C)C)cc2NC(=O)Nc2ccc(OCCN3CCOCC3)c3ccccc23)cc1 [doramapimod]
How it was run: as §1

bafetinib = compound: Cc1ccc(NC(=O)c2ccc(CN3CC[C@H](N(C)C)C3)c(C(F)(F)F)c2)cc1Nc1nccc(-c2cncnc2)n1 [bafetinib]
How it was run: as §1

nilotinib = compound: Cc1cn(-c2cc(NC(=O)c3ccc(C)c(Nc4nccc(-c5cccnc5)n4)c3)cc(C(F)(F)F)c2)cn1 [nilotinib]
How it was run: as §1

[4] = compound: Cc1nc(Nc2n[nH]c3c2CN(C(=O)N[C@H](CN(C)C)c2ccccc2)C3(C)C)c2sccc2n1
How it was run: as §1

[5] = compound: Cc1ncc(-c2ccnc(Nc3ccc(S(C)(=O)=O)cc3)n2)n1C(C)C
How it was run: as §1

quisinostat = compound: Cn1cc(CNCC2CCN(c3ncc(C(=O)NO)cn3)CC2)c2ccccc21 [quisinostat]
How it was run: as §1

tipifarnib = compound: Cn1cncc1[C@@](N)(c1ccc(Cl)cc1)c1ccc2c(c1)c(-c1cccc(Cl)c1)cc(=O)n2C [tipifarnib]
How it was run: as §1

[6] = compound: NC(=O)Nc1cc(-c2cccc(F)c2)sc1C(=O)N[C@H]1CCCNC1
How it was run: as §1

[7] = compound: C[C@H](C1=CC=C(C=C1)C(=O)NC2=C3C=CNC3=NC=C2)N
How it was run: as §1

gandotinib = compound: Cc1cc(Nc2cc(CN3CCOCC3)c3nc(C)c(Cc4ccc(Cl)cc4F)n3n2)n[nH]1 [gandotinib]
How it was run: as §1

[8] = compound: Cc1cccc(CC(=O)N2CCc3c2ccc(-c2cn(C)c4ncnc(N)c24)c3F)n1
How it was run: as §1

Target | log2 fold change (lapatinib) | log2 fold change (duvelisib) | log2 fold change (dasatinib) | log2 fold change [1] | log2 fold change [2] | log2 fold change [3] | log2 fold change (pictilisib) | log2 fold change (crizotinib) | log2 fold change (tozasertib) | log2 fold change (doramapimod) | log2 fold change (bafetinib) | log2 fold change (nilotinib) | log2 fold change [4] | log2 fold change [5] | log2 fold change (quisinostat) | log2 fold change (tipifarnib) | log2 fold change [6] | log2 fold change [7] | log2 fold change (gandotinib) | log2 fold change [8]
SMOX isoform 6 (UniProt Q9NWM0) | inactive: 0.22 | inactive: -0.104 | inactive: 0.1 | inactive: -0.084 | inactive: -0.058 | inactive: 0.009 |  |  |  |  |  |  |  |  |  |  |  |  |  | 
SMC1B isoform 3 (UniProt Q8NDV3) | inactive: 0 | inactive: 0.015 | inactive: -0.004 | inactive: 0.016 | inactive: -0.005 | inactive: -0.055 | inactive: -0.037 | inactive: -0.019 | inactive: 0.26 | inactive: -0.036 | inactive: -0.093 | inactive: 0.022 | inactive: -0.041 | inactive: 0.023 | inactive: 0.004 | inactive: 0.008 | inactive: -0.014 |  |  | 
SMIM20 isoform 2 (UniProt Q8N5G0) | inactive: 0.033 | inactive: -0.075 | inactive: 0.086 | inactive: -0.005 | inactive: -0.036 | inactive: -0.285 | inactive: -0.066 | inactive: -0.062 |  | inactive: 0.018 | inactive: 0.041 | inactive: 0.032 | inactive: 0.035 | inactive: 0.052 | inactive: 0.089 | inactive: 0.067 | inactive: 0.045 | inactive: 0.121 | inactive: -0.12 | inactive: -0.037
SMYD3 (UniProt Q9H7B4) | inactive: 0.017 | inactive: 0.062 | inactive: -0.101 | inactive: -0.029 | inactive: 0.036 | inactive: -0.051 | inactive: -0.018 | inactive: -0.146 | inactive: 0.023 | inactive: 0.053 | inactive: -0.062 | inactive: 0.004 | inactive: 0.022 | inactive: 0.01 | inactive: -0.056 | inactive: 0.031 | inactive: 0.038 |  |  | 
SNX2 isoform 2 (UniProt O60749) | inactive: -0.082 | inactive: -0.045 | inactive: -0.077 | inactive: -0.011 | inactive: -0.05 | inactive: -0.088 | inactive: -0.083 | inactive: -0.172 | inactive: -0.038 | inactive: -0.111 | inactive: -0.086 | inactive: 0.129 | inactive: -0.06 | inactive: 0.247 | inactive: -0.298 | inactive: 0.01 | inactive: 0.099 |  |  | 
SNRPA1 (UniProt H0YMA0) | inactive: -0.158 |  |  |  | inactive: -0.109 |  |  |  |  |  |  |  |  |  |  |  |  |  |  | 
SOD3 (UniProt P08294) | inactive: -0.242 |  |  |  | inactive: 0.196 |  | inactive: -0.019 |  | inactive: 0.084 |  | inactive: 0.336 |  |  |  |  |  |  | inactive: 0.003 | inactive: 0.071 | inactive: 0.14
SP6 (UniProt Q3SY56) | inactive: 0.06 | inactive: -0.033 | inactive: 0.094 | inactive: -0.077 | inactive: -0.054 | inactive: 0.064 |  | inactive: -0.049 | inactive: 0.018 | inactive: -0.026 |  | inactive: 0.464 | inactive: 0.058 | inactive: 0.077 | inactive: -0.01 | inactive: -0.16 | inactive: 0.042 | inactive: -0.317 | inactive: -0.092 | inactive: 0.21
SMIM29 (UniProt Q86T20) | inactive: -0.057 |  |  |  | inactive: 0.011 |  |  |  |  |  |  |  |  |  |  |  |  |  |  | 
SMPDL3B (UniProt Q92485) | inactive: 0.09 | inactive: 0.083 | inactive: -0.034 | inactive: 0.206 | inactive: 0.037 |  |  | inactive: 0.003 | inactive: -0.067 | inactive: -0.115 |  |  |  |  | inactive: 0.055 |  | inactive: -0.075 | inactive: -0.326 | inactive: -0.196 | inactive: 0.004
SNUPN (UniProt O95149) | inactive: 0.026 |  |  |  | inactive: -0.115 | active: -0.482 | inactive: -0.083 | inactive: -0.03 | inactive: 0.023 | inactive: -0.002 | inactive: -0.061 | inactive: -0.007 | inactive: -0.013 | inactive: 0.005 | inactive: 0.128 | inactive: -0.015 | inactive: 0.042 | inactive: -0.009 | inactive: -0.036 | inactive: 0.006
SOGA1 isoform 2 (UniProt O94964) |  | inactive: -0.015 | inactive: -0.077 | inactive: 0.043 |  | inactive: 0.042 | inactive: -0.051 | inactive: -0.015 | inactive: 0.038 | inactive: 0.027 | inactive: -0.044 | inactive: -0.009 | inactive: -0.001 | inactive: 0 | inactive: -0.091 | inactive: -0.056 | inactive: -0.016 | inactive: 0.038 | inactive: -0.209 | inactive: -0.054
SPAG1 (UniProt Q07617) | inactive: -0.058 |  |  |  | inactive: 0.164 |  | inactive: 0.17 | inactive: 0 |  | inactive: -0.025 | inactive: -0.265 |  |  |  | inactive: -0.037 |  | inactive: 0.007 |  |  | 
SMU1 isoform 2 (UniProt Q2TAY7) | inactive: -0.063 |  |  |  | inactive: 0.075 | inactive: -0.081 | inactive: -0.057 |  | inactive: 0.039 |  | inactive: -0.292 | inactive: -0.126 | inactive: 0.068 | inactive: 0.185 |  | inactive: -0.044 |  | inactive: -0.63 | inactive: 0.202 | inactive: 0.369
SMARCA4 isoform 4 (UniProt P51532) | inactive: -0.072 | inactive: -0.068 | inactive: -0.037 | inactive: 0.035 | inactive: -0.042 | inactive: 0.05 |  | inactive: 0 | inactive: 0.136 | inactive: -0.048 |  | inactive: -0.244 | inactive: -0.219 | inactive: 0.037 | inactive: -0.081 | inactive: 0.239 | inactive: 0.16 | inactive: 0.024 | inactive: -0.007 | inactive: -0.012
SNRPN isoform 2 (UniProt P63162) | inactive: -0.003 |  |  |  | inactive: 0.1 | inactive: -0.029 |  | inactive: -0.075 | inactive: 0.025 | inactive: -0.021 |  |  |  |  | inactive: -0.025 |  | inactive: 0.107 | inactive: 0.097 | inactive: 0.093 | inactive: -0.124
SNAP23 isoform 2 (UniProt O00161) | inactive: 0.075 |  |  |  | inactive: 0.046 | inactive: -0.116 |  |  | inactive: -0.185 |  |  | inactive: 0.011 | inactive: -0.041 | inactive: -0.054 |  | inactive: -0.016 |  | inactive: 0.188 | inactive: -0.054 | inactive: -0.163
SMIM11A (UniProt P58511) | inactive: 0.049 |  |  |  | inactive: 0.07 |  |  | inactive: -0.034 | inactive: 0.104 | inactive: -0.07 |  |  |  |  | inactive: 0.262 |  | inactive: -0.124 |  |  | 
SMARCC2 isoform 3 (UniProt Q8TAQ2) | inactive: 0.131 | inactive: -0.015 | inactive: 0.087 | inactive: -0.137 | inactive: 0.066 |  | inactive: 0.018 | inactive: 0.176 |  | inactive: -0.064 | inactive: -0.238 | inactive: 0.009 | inactive: 0.045 | inactive: 0.148 | inactive: -0.125 | inactive: 0.104 | inactive: 0.079 |  |  | 
SMDT1 (UniProt Q9H4I9) | inactive: -0.069 | inactive: -0.013 | inactive: 0.006 | inactive: 0.022 | inactive: -0.087 | inactive: 0.072 | inactive: 0.036 |  |  |  | inactive: -0.075 |  |  |  |  |  |  | inactive: -0.075 | inactive: 0.04 | inactive: 0.08
SNX14 (UniProt Q9Y5W7) | inactive: -0.046 | inactive: -0.005 | inactive: 0.051 | inactive: -0.01 | inactive: 0.009 | inactive: -0.451 | inactive: -0.055 | inactive: -0.197 | inactive: -0.006 | inactive: -0.092 | inactive: -0.005 | inactive: -0.128 | inactive: 0.012 | inactive: -0.195 | inactive: -0.539 | inactive: -0.07 | inactive: 0.176 |  |  | 
SMPD2 (UniProt O60906) | inactive: 0.015 | inactive: 0.107 | inactive: -0.169 | inactive: -0.102 | inactive: 0.029 | inactive: 0.069 |  |  | inactive: -0.031 |  |  |  |  |  |  |  |  | inactive: 0.106 | inactive: -0.051 | inactive: 0.03
SNX18 isoform 2 (UniProt Q96RF0) | inactive: 0.176 |  |  |  | inactive: -0.04 | inactive: 0.132 |  | inactive: 0.036 | inactive: 0.02 | inactive: 0.122 |  | inactive: 0.21 | inactive: -0.131 | inactive: -0.076 | inactive: 0.058 | inactive: 0.064 | inactive: 0.044 | inactive: -0.11 | inactive: -0.032 | inactive: 0.031

Not a retest: an excerpt of the list.
Target | log2 fold change (lapatinib) | log2 fold change (duvelisib) | log2 fold change (dasatinib) | log2 fold change [1] | log2 fold change [2] | log2 fold change [3] | log2 fold change (pictilisib) | log2 fold change (crizotinib) | log2 fold change (tozasertib) | log2 fold change (doramapimod) | log2 fold change (bafetinib) | log2 fold change (nilotinib) | log2 fold change [4] | log2 fold change [5] | log2 fold change (quisinostat) | log2 fold change (tipifarnib) | log2 fold change [6] | log2 fold change [7] | log2 fold change (gandotinib) | log2 fold change [8]
SMIM29 (UniProt Q86T20) | inactive: -0.057 |  |  |  | inactive: 0.011 |  |  |  |  |  |  |  |  |  |  |  |  |  |  | 
SMPDL3B (UniProt Q92485) | inactive: 0.09 | inactive: 0.083 | inactive: -0.034 | inactive: 0.206 | inactive: 0.037 |  |  | inactive: 0.003 | inactive: -0.067 | inactive: -0.115 |  |  |  |  | inactive: 0.055 |  | inactive: -0.075 | inactive: -0.326 | inactive: -0.196 | inactive: 0.004
